The source of these data is publication PMC11389393.

Sequences of proteins named here, by UniProt entry; tags and fusion partners are left off. A change or cut given only in a name is not applied to a line headed by its entry.
UniProt S8GG49: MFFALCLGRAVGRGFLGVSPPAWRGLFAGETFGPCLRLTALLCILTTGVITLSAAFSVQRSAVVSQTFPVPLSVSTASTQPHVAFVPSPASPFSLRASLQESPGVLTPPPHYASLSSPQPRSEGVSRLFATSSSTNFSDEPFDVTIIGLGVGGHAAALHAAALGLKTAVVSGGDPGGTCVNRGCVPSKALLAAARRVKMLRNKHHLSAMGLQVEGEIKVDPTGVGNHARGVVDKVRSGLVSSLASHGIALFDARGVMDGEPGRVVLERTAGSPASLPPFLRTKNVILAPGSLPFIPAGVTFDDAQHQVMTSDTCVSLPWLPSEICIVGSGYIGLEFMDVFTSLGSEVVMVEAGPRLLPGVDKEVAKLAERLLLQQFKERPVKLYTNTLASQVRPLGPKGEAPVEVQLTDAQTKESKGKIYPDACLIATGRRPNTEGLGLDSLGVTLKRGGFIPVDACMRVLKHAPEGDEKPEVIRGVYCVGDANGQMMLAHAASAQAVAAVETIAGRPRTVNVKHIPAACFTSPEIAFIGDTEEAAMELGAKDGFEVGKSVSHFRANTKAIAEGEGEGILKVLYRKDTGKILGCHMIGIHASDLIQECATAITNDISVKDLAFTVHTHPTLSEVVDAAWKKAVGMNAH
UniProt A0A125YZK4: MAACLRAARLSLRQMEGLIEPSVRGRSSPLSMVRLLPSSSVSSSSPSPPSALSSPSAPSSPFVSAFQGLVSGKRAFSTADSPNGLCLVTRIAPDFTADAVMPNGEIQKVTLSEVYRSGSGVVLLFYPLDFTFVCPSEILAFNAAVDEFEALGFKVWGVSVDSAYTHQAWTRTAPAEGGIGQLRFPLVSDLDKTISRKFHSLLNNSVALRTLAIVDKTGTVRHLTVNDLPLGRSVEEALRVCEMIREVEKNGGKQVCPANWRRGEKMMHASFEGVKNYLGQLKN
UniProt Q86G50: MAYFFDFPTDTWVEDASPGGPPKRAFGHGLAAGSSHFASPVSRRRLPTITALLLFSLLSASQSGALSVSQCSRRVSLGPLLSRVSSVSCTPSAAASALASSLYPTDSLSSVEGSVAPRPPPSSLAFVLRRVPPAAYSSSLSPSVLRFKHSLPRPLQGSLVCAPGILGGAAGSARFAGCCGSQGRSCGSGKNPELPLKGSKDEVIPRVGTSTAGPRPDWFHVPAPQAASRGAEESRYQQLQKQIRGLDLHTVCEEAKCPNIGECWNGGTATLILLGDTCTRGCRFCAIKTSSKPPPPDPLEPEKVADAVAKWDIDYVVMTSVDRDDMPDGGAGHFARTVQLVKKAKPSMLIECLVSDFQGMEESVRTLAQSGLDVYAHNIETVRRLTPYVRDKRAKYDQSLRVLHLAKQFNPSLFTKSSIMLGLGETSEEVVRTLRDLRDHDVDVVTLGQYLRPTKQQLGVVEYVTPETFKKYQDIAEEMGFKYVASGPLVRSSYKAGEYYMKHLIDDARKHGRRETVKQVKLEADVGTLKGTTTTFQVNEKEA
UniProt A0A125YVC1: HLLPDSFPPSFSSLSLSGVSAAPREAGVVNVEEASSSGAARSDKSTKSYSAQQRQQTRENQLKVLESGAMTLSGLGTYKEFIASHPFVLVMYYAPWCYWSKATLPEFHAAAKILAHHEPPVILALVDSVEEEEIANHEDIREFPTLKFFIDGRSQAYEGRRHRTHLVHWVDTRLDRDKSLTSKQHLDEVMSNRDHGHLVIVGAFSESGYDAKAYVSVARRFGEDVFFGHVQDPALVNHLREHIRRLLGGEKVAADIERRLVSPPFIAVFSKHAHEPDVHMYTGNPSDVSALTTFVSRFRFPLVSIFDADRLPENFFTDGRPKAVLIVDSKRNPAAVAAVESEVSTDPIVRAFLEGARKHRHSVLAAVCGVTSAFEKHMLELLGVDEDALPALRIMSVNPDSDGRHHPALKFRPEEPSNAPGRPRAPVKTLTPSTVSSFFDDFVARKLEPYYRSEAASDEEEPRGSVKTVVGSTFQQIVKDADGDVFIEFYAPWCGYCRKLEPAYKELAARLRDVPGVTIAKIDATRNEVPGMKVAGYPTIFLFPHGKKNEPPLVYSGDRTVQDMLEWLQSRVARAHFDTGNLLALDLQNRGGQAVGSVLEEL

In the test the target is PDI8-3FLAG (TgPDI8 with a 3xFLAG tag followed by the GEEL sequence) (Toxoplasma gondii). The test can be described thus: affinity purification with mass spectrometry; PDI8-3FLAG parasite lysate (50 mM Tris pH 7.4, 150 mM NaCl, 1% NP-40), mouse anti-FLAG antibodies overnight at 4°C, protein A/G magnetic beads, LC-MS/MS.

Results are given in words; binding and its absence hold for the method and conditions named. Binding seen in cells or lysates may run through a third protein. These calls come from enrichment with a bait or labelling near it, and not all partners need be listed.

With PDH-E3I (from UniProt S8GG49), the binding entry is “binds”.
In the case of Prx3 (from UniProt A0A125YZK4 1-283), the binding entry is reported as “binds”.
LiPA (from UniProt Q86G50): the binding result is given as “binds”.
To Trx (from UniProt A0A125YVC1) belongs “binds”.

B1: TgPOFUT2 (protein, UniProt S7WCF5 1-858)
chain: MHCQLGGQARALIFLMFESCRNSWHVSPWSSVPFLPSPCLFFSFSALPFLHPLSQLIACRGSSATWLFPVSSGTLVLRYALAASPPRGTMRPSTNPRTAEEGRPWLIHATQTGPQTASVLSLFPAVNAGFFSACRQHRGGRPPCLLNHRRLLLGLVSVLTVFLSCLPFTNATVSPAALQDVCYAFGNISRKLSSFLVPSRVTCPRGATPLSGVEAQDSLEHPEIPDFRFLVYDVKNGEGFHLQKEVIYRVALVISLLNARSAQQGRMTDVHTAEKAREDRGHPQASHMLCASSSFSHACSARSTFPFFPMWVLVLPPWCRLAHWHFSEETITAMAENSWLKHVRWGTFFDFQDLGERLPVMEYEDFLTYQLMRPDPWGERRQRKEKQTTPVELDVVLSVRFSSTPSSRSLPFCACLSSRASEIADEQAQRDDVCCNVNDLPGCPQIHAALTPQERQRAPAQRGGDPREEIDEQTGEFNEGHNPSGDGEREKRKPGRRSDTSRSRKEIQEEAKVSDTWSGVSLWLAGFCETVRALEMWCASLYIADAPRIADLLWRSVAERPPGAIQTVWLKFGENLLVPWPDVLLDAHLLDMLHVHPKLRQIGDLFINKFLSNRDKTETGKGERASTEGGTEGDENLAKHGYIAAHLRRTDFLYLKRSVPLQRAAAYLVSRMKEHGVFKAFICTDGSEDEKRELRDAVRRVGDAASSSPYTVVFFDLPTVRRLMIKTLEASSHVSDDGSFHDLKAVETPGYSGPNHISLLLHPGITALIEVWIAARAAYFIGTKDSRFSQAIRWERHLMGHPLDSSLEVFCVDSSPDQTGGQAQGKCFATKSHDPPEGRSRSELRRKYWPSLDPSSTL
Consider B1, for which the binding result is reported as “binds”.
